Assay results taken from the supplement of paper PMC4604168 (melanoma cell lines).
The other results are listed elsewhere or left out. Single values are uncertain, as repeats are few or missing.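 Imaging used 1,536-well plates; nuclei positive for cleaved PARP by antibody were divided by total DNA-stained nuclei to yield the apoptosis fraction. Doses for screening kept most cells viable, and cell lines differ markedly in resting and induced cleaved-PARP levels.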

Legend:
Test in all cases: cleaved PARP positive nuclei fraction relative to DMSO control; melanoma cells; higher = more apoptosis
Settings in all cases: library dose: low library concentration; 72 h
501Mel = tested on: 501Mel
A101D = tested on: A101D
A2058 = tested on: A2058
A375 = tested on: A375
C32 = tested on: C32
CBRC008 = tested on: CBRC008 (line from a melanoma biopsy)
CBRC013 = tested on: CBRC013 (line from a melanoma biopsy)
CBRC014 = tested on: CBRC014 (line from a melanoma biopsy)
CBRC016 = tested on: CBRC016 (line from a melanoma biopsy)
CBRC017 = tested on: CBRC017 (line from a melanoma biopsy)
COLO792 = tested on: COLO792
COLO800 = tested on: COLO800
COLO829 = tested on: COLO829
G361 = tested on: G361
IPC-298 = tested on: IPC-298
IST-MEL1 = tested on: IST-MEL1
LB2518-MEL = tested on: LB2518-MEL
LOXIMVI = tested on: LOXIMVI
MEL-HO = tested on: MEL-HO

| SMILES | cleaved PARP positive nuclei fraction (501Mel) [%] | cleaved PARP positive nuclei fraction (A101D) [%] | cleaved PARP positive nuclei fraction (A2058) [%] | cleaved PARP positive nuclei fraction (A375) [%] | cleaved PARP positive nuclei fraction (C32) [%] | cleaved PARP positive nuclei fraction (CBRC008) [%] | cleaved PARP positive nuclei fraction (CBRC013) [%] | cleaved PARP positive nuclei fraction (CBRC014) [%] | cleaved PARP positive nuclei fraction (CBRC016) [%] | cleaved PARP positive nuclei fraction (CBRC017) [%] | cleaved PARP positive nuclei fraction (COLO792) [%] | cleaved PARP positive nuclei fraction (COLO800) [%] | cleaved PARP positive nuclei fraction (COLO829) [%] | cleaved PARP positive nuclei fraction (G361) [%] | cleaved PARP positive nuclei fraction (IPC-298) [%] | cleaved PARP positive nuclei fraction (IST-MEL1) [%] | cleaved PARP positive nuclei fraction (LB2518-MEL) [%] | cleaved PARP positive nuclei fraction (LOXIMVI) [%] | cleaved PARP positive nuclei fraction (MEL-HO) [%] |
| --- | --- | --- | --- | --- | --- | --- | --- | --- | --- | --- | --- | --- | --- | --- | --- | --- | --- | --- | --- |
| Nc1ccn([C@@H]2O[C@H](CO)[C@@H](O)C2(F)F)c(=O)n1 [gemcitabine] + Cn1cncc1[C@@](N)(c1ccc(Cl)cc1)c1ccc2c(c1)c(-c1cccc(Cl)c1)cc(=O)n2C [tipifarnib] (first compound 0.0004 µM, partner dose 0.01 µM) | 84.7 | 76.5 | 81.6 | 72.2 | 148 | 308 | 122 | 192 | 158 | 142 | 63.9 | 107 | 232 | 132 | 52.5 | 126 | 52 | 170 | 84.1 |
| O=C(O)[C@@H]1[O][Sb](=[O])([O][Sb]2(=[O])[O][C@H]([C@H](O)CO)[C@H](O)[C@H](C(=O)O)[O]2)[O][C@H]([C@H](O)CO)[C@@H]1O (some centres undefined) [stibogluconate] + CN(NC(=O)CC(=O)NN(C)C(=S)c1ccccc1)C(=S)c1ccccc1 [STA4783] (first compound 2 µM, partner dose 0.006 µM) | 108 | 170 | 42.7 | 1250 | 49.9 | 1060 | 124 | 149 | 87.2 | 186 | 75.1 | 92.7 | 155 | 62.1 | 48.5 | 103 | 154 | 58.3 | 65.3 |
| CNC(=O)c1cc(Oc2ccc(NC(=O)Nc3ccc(Cl)c(C(F)(F)F)c3)cc2)ccn1 [sorafenib] + CO[C@@H]1[C@H](N(C)C(=O)c2ccccc2)C[C@H]2O[C@]1(C)n1c3ccccc3c3c4c(c5c6ccccc6n2c5c31)C(=O)NC4 [Midostaurin] (first compound 0.4 µM, partner dose 0.08 µM) | 68.5 | 131 | 101 | 103 | 92.9 | 192 | 160 | 398 | 97.9 | 95.9 | 68.7 | 162 | 89.4 | 200 | 103 | 69.6 | 126 | 272 | 88.4 |
| CC(C)C[C@H](NC(=O)[C@H](Cc1ccccc1)NC(=O)c1cnccn1)B(O)O [Bortezomib] + C=CCn1c(=O)c2cnc(Nc3ccc(N4CCN(C)CC4)cc3)nc2n1-c1cccc(C(C)(C)O)n1 [MK1775] (first compound 0.001 µM, partner dose 0.02 µM) | 242 | 814 | 72.2 | 150 | 167 | 352 | 83.7 | 139 | 303 | 361 | 68.2 | 116 | 114 | 1910 | 106 | 35.9 | 284 | 114 | 139 |
| Cn1c(=O)n(-c2ccc(C(C)(C)C#N)cc2)c2c3cc(-c4cnc5ccccc5c4)ccc3ncc21 + O=C(CCCCCCC(=O)Nc1ccccc1)NO [vorinostat] (first compound 0.004 µM, partner dose 0.08 µM) | 90.6 | 20.3 | 178 | 96.8 | 84.6 | 119 | 47.9 | 82.5 | 135 | 99.1 | 118 | 132 | 151 | 44.1 | 87.9 | 65.8 | 75.8 | 109 | 155 |
| CS(=O)(=O)CCNCc1ccc(-c2ccc3ncnc(Nc4ccc(OCc5cccc(F)c5)c(Cl)c4)c3c2)o1 [lapatinib] + CC1(C)NC(=O)N(c2ccc([N+](=O)[O-])c(C(F)(F)F)c2)C1=O [nilutamide] (first compound 0.8 µM, partner dose 1 µM) | 161 | 83.8 | 163 | 49.7 | 106 | 106 | 85.3 | 87 | 84.7 | 161 | 90.5 | 92.3 | 30.8 | 114 | 82.7 | 154 | 75.1 | 50 | 99.3 |
| C=C(c1ccc(C(=O)O)cc1)c1cc2c(cc1C)C(C)(C)CCC2(C)C [Bexarotene] + CN(NC(=O)CC(=O)NN(C)C(=S)c1ccccc1)C(=S)c1ccccc1 [STA4783] (first compound 2 µM, partner dose 0.006 µM) | 893 | 98.6 | 142 | 6110 | 245 | 1850 | 104 | 258 | 226 | 515 | 230 | 205 | 175 | 38 | 151 | 96.1 | 248 | 24.1 | 225 |
| CN1CCN(c2ccc3nc(-c4c(N)c5c(F)cccc5[nH]c4=O)[nH]c3c2)CC1 [Dovitinib] + NC(=O)Nc1cc(-c2cccc(F)c2)sc1C(=O)N[C@H]1CCCNC1 [AZD7762] (first compound 0.1 µM, partner dose 0.02 µM) | 82.5 | 111 | 59.8 | 193 | 153 | 189 | 124 | 85.1 | 84.3 | 111 | 67.9 | 146 | 96.1 | 82.4 | 88 | 123 | 68.2 | 95.5 | 93.7 |
| Nc1nc(F)nc2c1ncn2[C@@H]1O[C@H](CO)[C@@H](O)[C@@H]1O [fludarabine] + C[C@@H]1CCN(C(=O)CC#N)C[C@@H]1N(C)c1ncnc2[nH]ccc12 [CP690550] (first compound 0.2 µM, partner dose 1 µM) | 1230 | 90 | 84.8 | 7190 | 101 | 49.1 | 698 | 86.1 | 75.5 | 111 | 157 | 115 | 54.8 | 79 | 95.6 | 143 | 179 | 76.8 | 138 |
| Cn1c(=O)n(-c2ccc(C(C)(C)C#N)cc2)c2c3cc(-c4cnc5ccccc5c4)ccc3ncc21 + Cc1cc(N2CCOCC2)cc2[nH]c(-c3c(NC[C@@H](O)c4cccc(Cl)c4)cc[nH]c3=O)nc12 [BMS536924] (first compound 0.004 µM, partner dose 0.2 µM) | 95 | 41.9 | 25.1 | 553 | 133 | 365 | 390 | 94.8 | 58.4 | 108 | 191 | 251 | 229 | 136 | 51.3 | 39.4 | 97.4 | 110 | 70.1 |
| C[C@@H](Oc1cc(-c2cnn(C3CCNCC3)c2)cnc1N)c1c(Cl)ccc(F)c1Cl [Crizotinib] + Cc1ccc(NC(=O)c2cccc(N(C)C)c2)cc1NC(=O)c1ccc(O)cc1 [ZM336372] (first compound 0.2 µM, partner dose 2 µM) | 38.5 | 192 | 71.2 | 46.8 | 100 | 90.7 | 84.7 | 120 | 89.7 | 120 | 124 | 88.3 | 70.9 | 59.8 | 58 | 39.8 | 106 | 122 | 85.5 |
| Nc1nc(F)nc2c1ncn2[C@@H]1O[C@H](CO)[C@@H](O)[C@@H]1O [fludarabine] + CC(C)(C)c1cnc(CSc2cnc(NC(=O)C3CCNCC3)s2)o1 [SNS-032] (first compound 0.2 µM, partner dose 0.01 µM) | 1910 | 78.8 | 54.9 | 4860 | 103 | 154 | 521 | 93.5 | 113 | 86.2 | 150 | 59 | 132 | 52.4 | 48.3 | 221 | 186 | 176 | 152 |
| Nc1ncn([C@H]2C[C@H](O)[C@@H](CO)O2)c(=O)n1 [decitabine] + CO[C@@H]1[C@H](N(C)C(=O)c2ccccc2)C[C@H]2O[C@]1(C)n1c3ccccc3c3c4c(c5c6ccccc6n2c5c31)C(=O)NC4 [Midostaurin] (first compound 0.1 µM, partner dose 0.08 µM) | 79 | 218 | 51.7 | 56.9 | 60 | 122 | 101 | 139 | 206 | 109 | 159 | 146 | 190 | 130 | 196 | 86.9 | 64.8 | 87.2 | 93.9 |
| O=C(O)[C@@H]1[O][Sb](=[O])([O][Sb]2(=[O])[O][C@H]([C@H](O)CO)[C@H](O)[C@H](C(=O)O)[O]2)[O][C@H]([C@H](O)CO)[C@@H]1O (some centres undefined) [stibogluconate] + CN(C)S(=O)(=O)c1ccc2c(c1)/C(=C/c1cc3c([nH]1)CCCC3)C(=O)N2 [SU6656] (first compound 2 µM, partner dose 0.4 µM) | 92.9 | 62.3 | 127 | 146 | 67.8 | 64.3 | 105 | 91.5 | 89.4 | 246 | 83.2 | 35.9 | 37.9 | 89.3 | 57.9 | 141 | 61.5 | 63.6 | 43.2 |
| C=C(c1ccc(C(=O)O)cc1)c1cc2c(cc1C)C(C)(C)CCC2(C)C [Bexarotene] + Cn1cncc1[C@@](N)(c1ccc(Cl)cc1)c1ccc2c(c1)c(-c1cccc(Cl)c1)cc(=O)n2C [tipifarnib] (first compound 2 µM, partner dose 0.01 µM) | 177 | 35.5 | 65.6 | 42.8 | 259 | 113 | 81.2 | 146 | 826 | 107 | 49.5 | 60.4 | 123 | 59.2 | 95.1 | 66.7 | 83.5 | 235 | 73.4 |
| Nc1nc(F)nc2c1ncn2[C@@H]1O[C@H](CO)[C@@H](O)[C@@H]1O [fludarabine] + Cn1cncc1[C@@](N)(c1ccc(Cl)cc1)c1ccc2c(c1)c(-c1cccc(Cl)c1)cc(=O)n2C [tipifarnib] (first compound 0.2 µM, partner dose 0.01 µM) | 1480 | 96.6 | 139 | 12800 | 145 | 71.8 | 868 | 111 | 218 | 99 | 32.2 | 152 | 171 | 140 | 109 | 47.4 | 120 | 122 | 102 |

An excerpt of these results, with bars between the fields.
SMILES | cleaved PARP positive nuclei fraction (501Mel) [%] | cleaved PARP positive nuclei fraction (A101D) [%] | cleaved PARP positive nuclei fraction (A2058) [%] | cleaved PARP positive nuclei fraction (A375) [%] | cleaved PARP positive nuclei fraction (C32) [%] | cleaved PARP positive nuclei fraction (CBRC008) [%] | cleaved PARP positive nuclei fraction (CBRC013) [%] | cleaved PARP positive nuclei fraction (CBRC014) [%] | cleaved PARP positive nuclei fraction (CBRC016) [%] | cleaved PARP positive nuclei fraction (CBRC017) [%] | cleaved PARP positive nuclei fraction (COLO792) [%] | cleaved PARP positive nuclei fraction (COLO800) [%] | cleaved PARP positive nuclei fraction (COLO829) [%] | cleaved PARP positive nuclei fraction (G361) [%] | cleaved PARP positive nuclei fraction (IPC-298) [%] | cleaved PARP positive nuclei fraction (IST-MEL1) [%] | cleaved PARP positive nuclei fraction (LB2518-MEL) [%] | cleaved PARP positive nuclei fraction (LOXIMVI) [%] | cleaved PARP positive nuclei fraction (MEL-HO) [%]
CS(=O)(=O)CCNCc1ccc(-c2ccc3ncnc(Nc4ccc(OCc5cccc(F)c5)c(Cl)c4)c3c2)o1 [lapatinib] + CC1(C)NC(=O)N(c2ccc([N+](=O)[O-])c(C(F)(F)F)c2)C1=O [nilutamide] (first compound 0.8 µM, partner dose 1 µM) | 161 | 83.8 | 163 | 49.7 | 106 | 106 | 85.3 | 87 | 84.7 | 161 | 90.5 | 92.3 | 30.8 | 114 | 82.7 | 154 | 75.1 | 50 | 99.3
C=C(c1ccc(C(=O)O)cc1)c1cc2c(cc1C)C(C)(C)CCC2(C)C [Bexarotene] + CN(NC(=O)CC(=O)NN(C)C(=S)c1ccccc1)C(=S)c1ccccc1 [STA4783] (first compound 2 µM, partner dose 0.006 µM) | 893 | 98.6 | 142 | 6110 | 245 | 1850 | 104 | 258 | 226 | 515 | 230 | 205 | 175 | 38 | 151 | 96.1 | 248 | 24.1 | 225
